Data as given in publication PMC6048166.
Results are given in words; binding and its absence hold for the method and conditions named. In cells and extracts the contact can be indirect. Some results given as binding are weak or reduced against the parent protein; the word gives no strength.

The chains behind the UniProt entries cited, without tags or fusion partners.
UniProt Q8WXI9: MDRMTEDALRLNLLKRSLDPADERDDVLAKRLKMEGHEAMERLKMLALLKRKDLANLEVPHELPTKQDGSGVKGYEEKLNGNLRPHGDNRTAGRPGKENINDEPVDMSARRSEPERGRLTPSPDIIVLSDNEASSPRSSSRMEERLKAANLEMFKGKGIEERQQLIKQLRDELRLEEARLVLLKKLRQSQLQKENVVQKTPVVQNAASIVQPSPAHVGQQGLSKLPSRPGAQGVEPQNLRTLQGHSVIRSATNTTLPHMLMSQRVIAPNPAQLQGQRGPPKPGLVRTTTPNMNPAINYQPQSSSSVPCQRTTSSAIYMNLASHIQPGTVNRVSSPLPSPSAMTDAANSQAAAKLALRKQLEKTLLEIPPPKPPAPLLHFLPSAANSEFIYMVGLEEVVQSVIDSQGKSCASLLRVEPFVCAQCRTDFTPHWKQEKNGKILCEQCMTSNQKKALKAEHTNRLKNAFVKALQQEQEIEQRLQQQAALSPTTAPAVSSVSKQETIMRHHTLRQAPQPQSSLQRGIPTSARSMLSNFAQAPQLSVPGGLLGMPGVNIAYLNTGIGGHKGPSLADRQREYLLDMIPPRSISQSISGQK
UniProt P01106: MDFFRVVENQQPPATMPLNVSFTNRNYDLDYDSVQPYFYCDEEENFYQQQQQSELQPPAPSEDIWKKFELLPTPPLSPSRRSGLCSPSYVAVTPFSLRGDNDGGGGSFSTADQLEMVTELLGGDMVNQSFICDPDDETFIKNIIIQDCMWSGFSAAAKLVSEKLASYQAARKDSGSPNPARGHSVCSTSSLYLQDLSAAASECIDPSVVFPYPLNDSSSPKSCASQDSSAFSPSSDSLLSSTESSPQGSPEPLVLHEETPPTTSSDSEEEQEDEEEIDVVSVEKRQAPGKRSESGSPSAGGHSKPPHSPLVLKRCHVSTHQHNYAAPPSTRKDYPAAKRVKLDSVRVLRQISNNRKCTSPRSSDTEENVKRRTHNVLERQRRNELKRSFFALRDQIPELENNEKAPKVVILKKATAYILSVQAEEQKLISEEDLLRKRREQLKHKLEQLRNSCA

What was measured:
GST-GATAD2B (human) = GST-GATAD2B (human) (UniProt Q8WXI9); experiment: pull-down; GST pull-down; Venus-flag-MYC detected in complex with GST-GATAD2B; conditions not given
[1] = biological target: Nanoluc-tagged GATAD2B (human) (UniProt Q8WXI9); experiment: FRET or BRET; BRETn saturation (OncoPPi screen): NLuc-GATAD2B as donor and Venus-tagged genes as acceptors, co-transfected pairwise into HEK293T cells in 1536-well plates; read 48 h after transfection with furimazine

Substance	binding (GST-GATAD2B (human))	binding [1]
Venus-flag-MYC (from UniProt P01106 1-454)	binds	
Venus-tagged MYC (from UniProt P01106 1-454)		binds
